Data reported in PMC11335210.
These are yes or no findings as the source states them, for the method shown. Binding seen in cells or lysates may run through a third protein. Tags and fused reporters may be left off the sequences shown.

Molecular target: T1, human PKP4 N-terminally tagged with EGFP (EGFP-PKP4-WT) (human) (UniProt Q99569)
T1 sequence: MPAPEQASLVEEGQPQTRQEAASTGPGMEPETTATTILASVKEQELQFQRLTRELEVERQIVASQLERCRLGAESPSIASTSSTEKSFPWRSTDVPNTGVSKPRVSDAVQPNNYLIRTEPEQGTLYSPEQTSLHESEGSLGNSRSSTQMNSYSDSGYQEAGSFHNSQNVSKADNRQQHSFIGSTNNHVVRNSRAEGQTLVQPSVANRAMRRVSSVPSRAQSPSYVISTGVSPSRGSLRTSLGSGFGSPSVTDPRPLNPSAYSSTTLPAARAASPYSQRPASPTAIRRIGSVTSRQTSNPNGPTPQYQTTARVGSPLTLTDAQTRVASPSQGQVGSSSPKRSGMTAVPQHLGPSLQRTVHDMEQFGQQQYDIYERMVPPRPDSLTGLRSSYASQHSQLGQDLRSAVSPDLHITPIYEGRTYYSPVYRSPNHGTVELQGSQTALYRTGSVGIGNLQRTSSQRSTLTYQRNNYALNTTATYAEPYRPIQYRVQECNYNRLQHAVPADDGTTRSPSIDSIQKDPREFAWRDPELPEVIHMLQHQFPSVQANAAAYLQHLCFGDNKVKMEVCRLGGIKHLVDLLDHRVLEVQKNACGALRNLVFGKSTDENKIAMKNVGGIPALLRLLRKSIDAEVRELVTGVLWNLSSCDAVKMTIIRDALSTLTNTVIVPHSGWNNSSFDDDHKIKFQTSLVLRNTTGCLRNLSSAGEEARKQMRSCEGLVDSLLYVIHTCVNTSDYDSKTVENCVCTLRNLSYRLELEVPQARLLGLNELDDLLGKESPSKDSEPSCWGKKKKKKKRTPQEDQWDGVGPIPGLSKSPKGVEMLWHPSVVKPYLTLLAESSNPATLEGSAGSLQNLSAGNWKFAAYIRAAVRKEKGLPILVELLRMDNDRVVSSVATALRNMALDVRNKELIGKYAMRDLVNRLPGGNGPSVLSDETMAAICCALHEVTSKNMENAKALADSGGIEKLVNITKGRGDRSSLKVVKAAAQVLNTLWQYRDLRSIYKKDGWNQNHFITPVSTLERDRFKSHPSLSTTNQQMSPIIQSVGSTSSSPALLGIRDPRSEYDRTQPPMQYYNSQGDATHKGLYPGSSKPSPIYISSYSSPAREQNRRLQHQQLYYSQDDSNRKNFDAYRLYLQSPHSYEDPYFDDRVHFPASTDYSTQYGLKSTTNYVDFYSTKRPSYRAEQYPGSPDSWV
Test: co-IP; GFP-Trap Agarose on lysates of PKP4-KO + GFP-PKP4 (Rescue) keratinocytes, WT + GFP cells as control; IP buffer 20 mM Tris-HCl pH 7.5, 137 mM NaCl, 2 mM EDTA, 10% glycerol, 1% NP-40; 1 h at 4 °C; western blot

binding: no binding
Substance: cofilin
